In PubChem BioAssay AID504467 (National Center for Advancing Translational Sciences (NCATS), 2011):
The campaign covered roughly 330,000 compounds. About 7,700 (2.3%) were called active. The shares of active, inactive and inconclusive entries below differ from those in the screen. The call rests on the fitted dose curve; in most records, active means well fitted inhibition curve with a large enough effect; inconclusive means small, poorly fitted or top-dose-only effect, or effect the other way; inactive means flat fitted curve, though single readings scatter. Potencies of inconclusive entries are doubtful fits and often do not repeat.

test: qHTS screen for small molecules that inhibit ELG1-dependent DNA repair in human embryonic kidney (HEK293T) cells expressing luciferase-tagged ELG1; conditions: HEK293T ELG1-luciferase reporter, luminescence, 16 h, DNA damage induced by 5-fluorouridine; activity change, negative = inhibition: at 46.1 µM (top of the series); further: nearly all actives have a fitted effect of over 55% in size
Summary of the method: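 Overnight (16 hr) co-exposure of 2,000 cells/well to 5-fluorouridine and compound at 37 °C preceded detection. Luciferase was quantified via ONE-Glo luminescence; loss of signal denotes inhibition.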
On the % scale 0 is the no-effect control and ±100 the full control effect; potency means the concentration at half of the fitted maximal effect.

| SMILES | activity change, negative = inhibition | Potency |
| --- | --- | --- |
| COc1cc(/C=C(\C#N)C(=O)NCC2CCCO2)ccc1OCC(N)=O (stereo not given) | inactive: 7.01% |  |
| Cc1ccc(C(=O)Nc2ccccc2[N+](=O)[O-])cc1S(=O)(=O)N1CCOCC1 | inactive: -2.41% |  |
| O=C(COCc1cc(-c2ccc3c(c2)OCO3)on1)N1CCN(c2cccc(C(F)(F)F)c2)CC1 | inactive: -18% |  |
| CCOC(=O)N1CCN(C(=O)c2oc3ccc(S(=O)(=O)N(CC)CC)cc3c2C)CC1 |  | active: 11.6 µM |
| COc1ccc(-c2coc3c(CN4CCCCC4C)c(O)ccc3c2=O)cc1 (stereo not given) |  | inconclusive: 32.6 µM [inhibitor, single point] |
| COc1ccc(N(CC(=O)Nc2cc(C)ccc2OC)S(=O)(=O)c2c(C)noc2C)cc1 |  | inconclusive: 29.1 µM [inhibitor, single point] |
| CC(OC(=O)c1cccc(-n2cnnn2)c1)C(=O)c1ccccc1 (stereo not given) |  | inconclusive: 8.2 µM [activator, single point] |
| Cc1nn(CC(=O)NCCc2ccccc2)c(=O)c2cccn12 |  | inconclusive: 20.6 µM [activator, single point] |
| CNC(=S)N1N=C(c2cccs2)CC1c1ccc(F)cc1 (stereo not given) |  | inconclusive: 18.3 µM [inhibitor, single point] |
| CCOc1ccc(OCCCC(=O)N2CCN(S(=O)(=O)c3ccccc3C#N)CC2)cc1 |  | inconclusive: 10.3 µM [inhibitor, single point] |
| O=C(NCc1nnc(SCC(=O)N2CCCc3ccccc32)n1-c1ccccc1)c1cccc2ccccc12 |  | inconclusive: 18.4 µM [inhibitor, single point] |
| CN1c2ccccc2C(=O)NC1c1ccc([N+](=O)[O-])s1 (stereo not given) |  | inconclusive: 23.1 µM [inhibitor, single point] |
| CCCn1c(SCC(=O)NC2CC2)nnc1-c1ccccn1 | inactive: 18.5% |  |
| O=C1c2ccccc2C(=O)N1CCc1c[nH]c2ccc(O)cc12 |  | inconclusive: 14.6 µM [activator, partial curve] |
| Cc1sc2nc(CSc3nc4ccccc4s3)[nH]c(=O)c2c1C |  | inconclusive: 25.9 µM [inhibitor, partial curve, poor fit] |
| O=C(Nc1ccnn1C1CCN(C2CCCC2)CC1)c1ccccc1 |  | inconclusive: 0.184 µM [activator, single point] |
| O=C(CCCNS(=O)(=O)c1cccc2nsnc12)NCCN1CCN(c2ccccc2F)CC1 |  | inconclusive: 29.1 µM [inhibitor, single point] |
| Fc1ccc(N2N=C(c3cccs3)CC2c2ccccc2)cc1 (stereo not given) |  | inconclusive: 29.1 µM [inhibitor, single point] |
| CN(C)CCCN(C(=O)c1ccc(S(=O)(=O)N2CCc3ccccc32)cc1)c1nc2c(Cl)cccc2s1 | inactive: 1.86% |  |
| CC(OC(=O)CCN=C1NS(=O)(=O)c2ccccc21)C(=O)Nc1ccccc1F (stereo not given) | inactive: 16.3% |  |
| COc1ccc(C2CCCN2C(=S)Nc2cccc(C)c2C)cc1OC (stereo not given) |  | inconclusive: 18.3 µM [inhibitor, single point] |
| CCN(CC)c1ccc(NC(=O)CN2CCN(c3nc(C)cc(C)n3)CC2)cc1 | inactive: 0% |  |
| CN(C)S(=O)(=O)c1ccc(NC(=O)c2ccccn2)cc1 |  | inconclusive: 5.17 µM [activator, full curve] |
| CCOC(=O)c1cccc(NC(=O)/C=C/c2ccc([N+](=O)[O-])cc2)c1 |  | inconclusive: 14.6 µM [inhibitor, partial curve] |

In another format: results already given
SMILES | activity change, negative = inhibition | Potency
CC(OC(=O)c1cccc(-n2cnnn2)c1)C(=O)c1ccccc1 (stereo not given) |  | inconclusive: 8.2 µM [activator, single point]
Cc1nn(CC(=O)NCCc2ccccc2)c(=O)c2cccn12 |  | inconclusive: 20.6 µM [activator, single point]
O=C(NCc1nnc(SCC(=O)N2CCCc3ccccc32)n1-c1ccccc1)c1cccc2ccccc12 |  | inconclusive: 18.4 µM [inhibitor, single point]

Remaining list, next part.

| SMILES | activity change, negative = inhibition | Potency |
| --- | --- | --- |
| O=C(CCN1CCOCC1)c1ccccc1 | inactive: -9.63% |  |
| COc1cc(NC(=O)c2cccc(C)c2)c(OC)cc1NC(=O)CN1CCOCC1 |  | inconclusive: 20.6 µM [inhibitor, partial curve, poor fit] |
| O=C(Cn1ccc([N+](=O)[O-])n1)N1CCCc2ccccc21 |  | inconclusive: 14.6 µM [activator, partial curve] |
| Cc1c(NC(=O)CSc2nc3ccccc3n2C)c(=O)n(-c2ccccc2)n1C |  | inconclusive: 0.366 µM [inhibitor, partial curve, poor fit] |
| Cc1cccc(N2CCN(S(=O)(=O)c3ccc4c(c3)OCCO4)CC2)c1C | inactive: 1.86% |  |
| Cc1cccc(C(=O)Nc2cc(S(=O)(=O)N3CCOCC3)ccc2N2CCCCC2)c1 |  | inconclusive: 23.1 µM [inhibitor, single point] |
| CC1CCC(NC(=O)C2CC(O)CN2S(=O)(=O)c2ccc([N+](=O)[O-])cc2)CC1 (stereo not given) | inactive: 22% |  |
| COc1ccccc1-c1c(C)nn2c(N)c(-c3ccc(Cl)cc3)cnc12 |  | inconclusive: 28.2 µM [inhibitor, single point] |
| N#CCCN(C(=O)COC(=O)c1ccc(S(=O)(=O)N2CCCC2)cc1)c1cccc(Cl)c1 |  | inconclusive: 8.91 µM [inhibitor, partial curve, poor fit] |
| CCNC(=O)N1C(CC(=O)OCC)C(=O)NC2CCCCC21 (stereo not given) | inactive: 2.21% |  |
| Nn1c(C2CCC2)nc2cc(Cl)ccc2c1=O | inactive: -3.3% |  |
| Cc1ccc(S(=O)(=O)N(C)c2ccc(C(=O)N3CCN(Cc4ccc5c(c4)OCO5)CC3)cc2)cc1 |  | active: 6.51 µM |
| COC(=O)c1ccc(CSc2nc3c(c(=O)n2-c2ccccc2)SCC3)o1 |  | inconclusive: 29.1 µM [inhibitor, single point] |
| CN1CCOC(=O)/C1=N/Nc1cc(Cl)ccc1Cl | inactive: -16.7% |  |
| Cc1ccc2c(c1)sc1nc(=O)n(-c3cccc(Cl)c3)c(=O)n12 |  | inconclusive: 10.3 µM [activator, partial curve] |
| COC(=O)c1nn(-c2ccc(OC)cc2)c(=O)cc1Oc1ccccc1 | inactive: 7.44% |  |
| Cc1c(/C=N/NC(=O)c2cc(=O)[nH]c(=O)[nH]2)c2ccccn2c1C(=O)c1ccccc1 | inactive: -1.57% |  |
| COc1ccc(-c2noc(C3CCCN(C(=O)Nc4ccccc4F)C3)n2)cc1 (stereo not given) |  | inconclusive: 29.1 µM [inhibitor, single point] |
| COc1ccc(Cn2c(C)nc3ccc([N+](=O)[O-])cc3c2=O)cc1 |  | inconclusive: 29.1 µM [inhibitor, partial curve, poor fit] |
| Cn1ccc(NC(=O)Nc2ccc(Cl)cc2)n1 |  | inconclusive: 20.6 µM [activator, partial curve] |
| O=c1cc(CNc2cc(Cl)ccc2Cl)nc2sccn12 |  | inconclusive: 18.4 µM [activator, single point] |
| Cc1[nH]n(-c2ccccc2)c(=O)c1N=Nc1cccc(C(=O)O)c1 |  | inconclusive: 0.058 µM [activator, full curve, poor fit] |
| CCN(CC)S(=O)(=O)c1cccc(C(=O)OCC(=O)C23CC4CC(CC(C4)C2)C3)c1 |  | inconclusive: 23.1 µM [inhibitor, partial curve] |
| COc1ccccc1/C=N/Nc1cc(C)nc2ccc(C)cc12 |  | inconclusive: 29.1 µM [activator, single point] |

| SMILES | activity change, negative = inhibition | Potency |
| --- | --- | --- |
| CC(C)c1ccc(Nc2nnc(SC3CCOC3=O)s2)cc1 (stereo not given) |  | inconclusive: 14.6 µM [activator, partial curve, poor fit] |
| COc1ccc(CCN(Cc2ccccn2)C(=S)Nc2cccc(C)c2)cc1OC |  | inconclusive: 20.6 µM [inhibitor, single point] |
| CN(C(=O)c1ccc(NC(=O)Cc2cccc(NC(=O)C3CCCN(C(=O)C4CC4)C3)c2)cc1)C1CCCC1 (stereo not given) | inactive: -2.52% |  |
| NC(=O)C1CCCN(CC(=O)Nc2ccccc2C(=O)NC2CC2)C1 (stereo not given) | inactive: 14.8% |  |
| N#Cc1cnc2sc3ccccc3n2c1=N |  | inconclusive: 29.1 µM [activator, single point] |
| O=C(N/N=C\c1cc([N+](=O)[O-])ccc1N1CCCC1)c1ccccn1 |  | inconclusive: 20.6 µM [inhibitor, partial curve] |
| O=C(Nc1ccc(S(=O)(=O)N2CCCC2)cc1)N1c2ccccc2Sc2ccccc21 |  | inconclusive: 23.1 µM [inhibitor, single point] |
| COc1cccc(N2CCN(c3ccc4nnc(CCC(=O)Nc5ccc(C)cn5)n4n3)CC2)c1 | inactive: -19.7% |  |
| O=C(O)CCNS(=O)(=O)c1ccc2ccccc2c1 | inactive: 3.78% |  |
| CCC(C(=O)OCC(=O)Nc1ccc2[nH]c(=O)[nH]c2c1)c1ccccc1 (stereo not given) | inactive: -0.252% |  |
| Cc1cc(C(=O)COC(=O)CNC(=O)c2ccccc2)c(C)n1CC1CCCO1 (stereo not given) |  | inconclusive: 20.6 µM [activator, single point] |
| Cc1cccc(-n2c(SCc3ccc([N+](=O)[O-])cc3)nnc2-c2c[nH]c3ccccc23)c1 |  | inconclusive: 18.3 µM [inhibitor, single point] |
| COc1ccc(C(=O)N2CCC(C(=O)Nc3ccccc3OC)CC2)cc1 | inactive: 13.1% |  |
| N#Cc1c(N)n(CCc2ccc(F)cc2)c2nc3ccccc3nc12 | inactive: -5.39% |  |
| C[C@H]1COC(=O)[C@@H](Cc2ccc(F)cc2)C/C=C\C[C@H](CC(=O)N(CCO)Cc2ccccc2)C(=O)N1 | inactive: 14.4% |  |
| O=S1(=O)[C@H]2C[C@H](CO)O[C@@]2(CO)CN1Cc1ccc(-c2cccc(Cl)c2)cc1 |  | active: 2.31 µM |
| CC(=O)Oc1ccc(C(=O)NCCc2ccccc2)cc1 |  | inconclusive: 1.83 µM [activator, full curve] |
| CCNC(=S)N/N=C/c1ccc(OCC(=O)Nc2ccc(OC)cc2)c(OC)c1 |  | inconclusive: 5.8 µM [inhibitor, partial curve] |
| CC(C)C12CCC(C(=O)O)C(C1)C(=O)O2 (stereo not given) |  | inconclusive: 20 µM [inhibitor, single point] |
| O=C1CC(c2ccco2)CC(O)=C1C=Nc1ccc(Br)cc1 (stereo not given) | inactive: -1.09% |  |
| Cc1ccc(NC(=O)COC(=O)C2CCN(c3ccc(C(F)(F)F)cn3)CC2)cc1 | inconclusive: 9.41% [activator] |  |
| CCOc1cc(C=O)ccc1OCC(=O)N1CCCC1 | inactive: 11.7% |  |

Look-ups from the list.
Potency, Cc1cccc(-n2c(SCc3ccc([N+](=O)[O-])cc3)nnc2-c2c[nH]c3ccccc23)c1 reads inconclusive: 18.3 µM [inhibitor, single point]
activity change, negative = inhibition, C[C@H]1COC(=O)[C@@H](Cc2ccc(F)cc2)C/C=C\C[C@H](CC(=O)N(CCO)Cc2ccccc2)C(=O)N1 reads inactive: 14.4%
